# Data as given in PubChem BioAssay AID1224830 (NIAID, 2016)
# Test: 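Regulators of TLR4 signalling towards TNF-alpha in macrophage-like cells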 (primary screen)
# Cell system: human THP-1 monocytic leukaemia cells, TNF dual-luciferase reporter clone, PMA-differentiated to macrophage-like cells
# Reagent: siRNA pool against human genes, 50 nM
# Duration: LPS for 4 h, given about 3 days after siRNA transfection
# Challenge: bacterial LPS (TLR4 ligand), 10 ng/ml
# Detection: 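TNF firefly reporter luminescence divided by renilla, normalised to the plate median, then turned into a robust z-score for each replicate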
# Direction: TNF reporter robust z-score: higher = stronger TNF reporter response to LPS
# Active means: 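a well is active when its z-score exceeds 2.8 or falls below -1.5; control wells carry no call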
# The deposit covers about 18,000 reagents; shown is a part drawn at random. Over the whole deposit, about 2,900 (16%) got an active call. 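Calls are made per well; low scores hint the gene aids the LPS response, high scores that it dampens it.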 Repeated entries: four replicate wells of each siRNA pool. Reagent sequences are not shown.
target,PubChem SID,TNF reporter robust z-score,call
NFASC (neurofascin),SID315455001,0.26,inactive
NFASC (neurofascin),SID315455001,0.51,inactive
NFASC (neurofascin),SID315455001,-0.53,inactive
NFASC (neurofascin),SID315455001,0.74,inactive
CEACAM19 (CEA cell adhesion molecule 19),SID315458199,-0.71,inactive
CEACAM19 (CEA cell adhesion molecule 19),SID315458199,-0.26,inactive
CEACAM19 (CEA cell adhesion molecule 19),SID315458199,-0.97,inactive
CEACAM19 (CEA cell adhesion molecule 19),SID315458199,-0.73,inactive
PPP4R3B (protein phosphatase 4 regulatory subunit 3B),SID315458343,-0.47,inactive
PPP4R3B (protein phosphatase 4 regulatory subunit 3B),SID315458343,-1,inactive
PPP4R3B (protein phosphatase 4 regulatory subunit 3B),SID315458343,-0.21,inactive
PPP4R3B (protein phosphatase 4 regulatory subunit 3B),SID315458343,0.06,inactive
PPP2R2C (protein phosphatase 2 regulatory subunit Bgamma),SID315450755,0.15,inactive
PPP2R2C (protein phosphatase 2 regulatory subunit Bgamma),SID315450755,0.25,inactive
PPP2R2C (protein phosphatase 2 regulatory subunit Bgamma),SID315450755,1.68,inactive
PPP2R2C (protein phosphatase 2 regulatory subunit Bgamma),SID315450755,0.71,inactive
SIAE (sialic acid acetylesterase),SID315456995,0.62,inactive
SIAE (sialic acid acetylesterase),SID315456995,1.54,inactive
SIAE (sialic acid acetylesterase),SID315456995,0.59,inactive
SIAE (sialic acid acetylesterase),SID315456995,0.73,inactive
SH2D4B (SH2 domain containing 4B),SID315464445,0.04,inactive
SH2D4B (SH2 domain containing 4B),SID315464445,-0.01,inactive
SH2D4B (SH2 domain containing 4B),SID315464445,0.33,inactive
WDR31 (WD repeat domain 31),SID315461283,-1.54,active
WDR31 (WD repeat domain 31),SID315461283,-1.48,inactive
WDR31 (WD repeat domain 31),SID315461283,-1.65,active
WDR31 (WD repeat domain 31),SID315461283,-1.61,active
ADD2 (adducin 2),SID315447196,-0.56,inactive
ADD2 (adducin 2),SID315447196,-0.93,inactive
ADD2 (adducin 2),SID315447196,-1.1,inactive
ADD2 (adducin 2),SID315447196,0.18,inactive
PPP4R4 (protein phosphatase 4 regulatory subunit 4),SID315458570,0.94,inactive
PPP4R4 (protein phosphatase 4 regulatory subunit 4),SID315458570,0.09,inactive
PPP4R4 (protein phosphatase 4 regulatory subunit 4),SID315458570,-0.39,inactive
PPP4R4 (protein phosphatase 4 regulatory subunit 4),SID315458570,0.96,inactive
RNASE9 (ribonuclease A family member 9 (inactive)),SID315464649,-0.31,inactive
RNASE9 (ribonuclease A family member 9 (inactive)),SID315464649,-0.47,inactive
RNASE9 (ribonuclease A family member 9 (inactive)),SID315464649,0.92,inactive
RNASE9 (ribonuclease A family member 9 (inactive)),SID315464649,0.89,inactive
"MLLT6 (MLLT6, PHD finger containing)",SID315449993,-0.5,inactive
"MLLT6 (MLLT6, PHD finger containing)",SID315449993,-0.11,inactive
"MLLT6 (MLLT6, PHD finger containing)",SID315449993,-1.29,inactive
"MLLT6 (MLLT6, PHD finger containing)",SID315449993,-1.24,inactive
SMG8 (SMG8 nonsense mediated mRNA decay factor),SID315457473,-0.24,inactive
SMG8 (SMG8 nonsense mediated mRNA decay factor),SID315457473,-0.69,inactive
SMG8 (SMG8 nonsense mediated mRNA decay factor),SID315457473,0.22,inactive
PAGE2B (PAGE family member 2B),SID315464586,-0.4,inactive
PAGE2B (PAGE family member 2B),SID315464586,0.34,inactive
PAGE2B (PAGE family member 2B),SID315464586,0.67,inactive
PAGE2B (PAGE family member 2B),SID315464586,0.75,inactive
TOPORS,SID315453908,0.01,inactive
TOPORS,SID315453908,-0.37,inactive
TOPORS,SID315453908,-0.26,inactive
TOPORS,SID315453908,0.66,inactive
NGLY1 (N-glycanase 1),SID315457841,-0.01,inactive
NGLY1 (N-glycanase 1),SID315457841,-0.31,inactive
NGLY1 (N-glycanase 1),SID315457841,0.2,inactive
NGLY1 (N-glycanase 1),SID315457841,0.28,inactive
OR10H3 (olfactory receptor family 10 subfamily H member 3),SID315455812,-0.18,inactive
OR10H3 (olfactory receptor family 10 subfamily H member 3),SID315455812,0.32,inactive
OR10H3 (olfactory receptor family 10 subfamily H member 3),SID315455812,-0.11,inactive
OR10H3 (olfactory receptor family 10 subfamily H member 3),SID315455812,0.76,inactive
TAF4 (TATA-box binding protein associated factor 4),SID315451739,-1.52,active
TAF4 (TATA-box binding protein associated factor 4),SID315451739,-0.74,inactive
TAF4 (TATA-box binding protein associated factor 4),SID315451739,-0.45,inactive
TAF4 (TATA-box binding protein associated factor 4),SID315451739,-0.54,inactive
SEPTIN3 (septin 3),SID315457962,0.39,inactive
SEPTIN3 (septin 3),SID315457962,0.64,inactive
SEPTIN3 (septin 3),SID315457962,-0.34,inactive
SEPTIN3 (septin 3),SID315457962,0.79,inactive
DUSP10 (dual specificity phosphatase 10),SID315454696,-1.77,active
DUSP10 (dual specificity phosphatase 10),SID315454696,-0.89,inactive
DUSP10 (dual specificity phosphatase 10),SID315454696,-1.51,active
DUSP10 (dual specificity phosphatase 10),SID315454696,-0.52,inactive
UBE2E3 (ubiquitin conjugating enzyme E2 E3),SID315454122,0.41,inactive
UBE2E3 (ubiquitin conjugating enzyme E2 E3),SID315454122,3.74,active
UBE2E3 (ubiquitin conjugating enzyme E2 E3),SID315454122,0.02,inactive
UBE2E3 (ubiquitin conjugating enzyme E2 E3),SID315454122,1.52,inactive

9 entries from above, sorted by “TNF reporter robust z-score”, lowest first.
target,PubChem SID,TNF reporter robust z-score,call
"MLLT6 (MLLT6, PHD finger containing)",SID315449993,-1.29,inactive
"MLLT6 (MLLT6, PHD finger containing)",SID315449993,-1.24,inactive
SMG8 (SMG8 nonsense mediated mRNA decay factor),SID315457473,-0.69,inactive
"MLLT6 (MLLT6, PHD finger containing)",SID315449993,-0.5,inactive
PAGE2B (PAGE family member 2B),SID315464586,-0.4,inactive
SMG8 (SMG8 nonsense mediated mRNA decay factor),SID315457473,-0.24,inactive
"MLLT6 (MLLT6, PHD finger containing)",SID315449993,-0.11,inactive
SMG8 (SMG8 nonsense mediated mRNA decay factor),SID315457473,0.22,inactive
RNASE9 (ribonuclease A family member 9 (inactive)),SID315464649,0.89,inactive
